Test results as given in patent publication US20250281679A1 (INSERM (Institut National de la Santé et de la Recherche …, priority 2021, published 2025).

Experiment: general procedure: Fmoc solid-phase peptide synthesis; Protide Rink-amide resin (CEM, 100-200 Mesh; loading 0.2 mmol/g); DIC/Oxyma
Conditions: whole synthesis, scale of the general procedure 0.2 mmol, TFA salt

Substance | crude yield | isolated yield
SHQMLFYKDDVLFYNISSS-GGSGGSGG-K(N3)-CONH2 (GGSGGSGG-K(N3), C-terminal amide; BINDING 19 GGSGGSGG-K(N3)) | Y=66% | Y=4%
Ac-K(N3)-(Ttds)4-PRhCTLDKKEAIQGGIVRVNhCSVPEEK-CONH2 | Y=73% | 
Ac-KKKc*HQMLFYKDDVLFYNISSC*-Ttds-Ttds-K(N3)-CONH2 | Y=61% | Y=2%
YKSTVIVNNKEKTTAE-PEG4-K(N3)-CONH2 (PEG4-K(N3) C-terminus, amide; BINDING 16 PEG4-K(N3)) | Y=70% | Y=25%
hCYKSTVIVNNKEKTTAEYhC-(Ttds)4-K(N3)-NH2 | Y=65% | Y=28%
K(N3)-PEG4-PRVTLDKKEAIQGGIVRVNSSVPEEK-CONH2 (Ac-K(N3)-PEG4 N-terminus, C-terminal amide; BINDING 1 Ac-K(N3)-PEG4-) | Y=54% | Y=35%
hCHQMLFYKDDVLFYNISShCK-Ttds-Ttds-Ttds-Ttds-K(N3)-CONH2 | Y=70% | Y=10%
Ac-c*HQMLFYKDDVLFYNISSC*-GGSGGSGG-K(N3)-CONH2 | Y=64% | Y=5%
